Measured values taken from PubChem BioAssay AID493014 (National Center for Advancing Translational Sciences (NCATS), 2011).
The list shows a part of the results. Further columns of the screen follow, without active or inactive calls. Most of these compounds were active or inconclusive in the main read-out, so they are no random draw. Words in brackets tell the shape of the fitted curve; partial curves, single points and poor fits give uncertain potencies.

Test: qHTS Assay to Find Inhibitors of Chronic Active B-Cell Receptor Signaling
Settings: ABC-DLBCL IkBa-CBG/CBR reporter, luminescence ratio (green luciferase fused to IkBa over red control in TMD8 lymphoma cells), 4 h
Procedure, shortened: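 Doxycycline induced both beetle luciferases in TMD8 lymphoma cells; IKK-driven degradation limits the IkappaBalpha-fused green signal, while red luminescence normalises for cell number and nonspecific effects. Compounds tested up to 46 uM, 4 hrs.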

[1] = measured here: CBR red luminescence, cell number
[2] = measured here: IkBa-CBG green luminescence

COC(=O)C1CCN(Cc2cn(-c3ccccc3)nc2-c2ccc3c(c2)OCO3)CC1
AC50 [1]: 35.5 µM [falling, partial curve, poor fit]

CC1CCN(c2c(NCc3ccc(C(=O)NCc4ccco4)cc3)c(=O)c2=O)CC1
AC50 [1]: 3.26 µM [rising, single point]

CN1C(=O)NC(NC(=O)c2cccs2)(C(F)(F)F)C1=O (centres undefined)
AC50 [1]: 2.06 µM [falling, partial curve, poor fit]

NS(=O)(=O)c1ccc(CCNC(=O)c2ccccc2OCc2ccc(F)cc2)cc1
AC50 [1]: 35.5 µM [falling, partial curve, poor fit]

CCOC(=O)c1ccc(NC(=O)C2C3CCCCC32)cc1 (centres undefined)
AC50 [1]: 2.51 µM [rising, partial curve, poor fit]

Cn1c(=O)c(=O)n(C)c2cc(S(=O)(=O)N3CCN(c4cccc(C(F)(F)F)c4)CC3)ccc21
AC50 [1]: 10.3 µM [rising, partial curve, poor fit]

CC(C)C(=O)C1=Cc2cccc([N+](=O)[O-])c2OC1N1CCOCC1 (centres undefined)
AC50 [1]: 18.4 µM [falling, single point]

COc1cccc(F)c1C(C[N+](=O)[O-])c1c(N)n(C)c(=O)n(C)c1=O (centres undefined)
AC50 [1]: 5.01 µM [falling, full curve]

Cc1ccc(Oc2cc(C)nc(-c3ccccc3O)n2)cc1
AC50 [1]: 12.6 µM [rising, single point]

CC(=O)N1c2c(cc(Br)cc2S(=O)(=O)N2CCN(c3ccccn3)CC2)CC1C (centres undefined)
AC50 [1]: 0.0651 µM [rising, full curve, poor fit]

CCC(C)c1ccc(NC(=O)Nc2cccnc2)cc1 (centres undefined)
AC50 [1]: 11.2 µM [rising, partial curve]

Cc1cccc(-c2c3c(=O)n(C)c(=O)n(C)c3cn2C(C)C)c1
AC50 [1]: 1.03 µM [rising, full curve, poor fit]

CC(Oc1ccc(Cl)cc1Cl)C(=O)OCn1nnc2ccccc2c1=O (centres undefined)
AC50 [1]: 29.1 µM [rising, single point]

O=C(O)CCCCCN1C(=O)/C(=C\c2cn(-c3ccccc3)nc2-c2cccs2)SC1=S
AC50 [1]: 0.794 µM [falling, full curve]

CCOC(=O)C1=C(c2ccccc2)N=c2s/c(=C\c3ccco3)c(=O)n2C1c1cccs1 (centres undefined)
AC50 [1]: 8.91 µM [falling, partial curve, poor fit]

COc1cccc(N(C(=O)CCl)C(C(=O)NCCc2ccccc2)c2cccs2)c1 (centres undefined)
AC50 [1]: 9.2 µM [falling, partial curve]

Cc1ccc(SCCC(=O)Nc2nccs2)cc1
AC50 [1]: 14.1 µM [falling, single point] | AC50 [2]: 14.1 µM [rising, partial curve, poor fit]

CN1C[C@@H]2C(c3ccc(Cl)nc3)C3(c4ccccc4)CC2(C3)[C@H]1c1ccccc1 (some centres undefined)
AC50 [1]: 22.4 µM [falling, single point]

Cc1nn(C)cc1CN1CCCC(C(=O)c2ccc(-c3ccccc3)cc2)C1 (centres undefined)
AC50 [1]: 6.31 µM [rising, single point]

Cc1cc2c(cc1S(=O)(=O)N(C)c1ccccc1)n(C)c(=O)n2C
AC50 [1]: 17.8 µM [rising, single point]

O=C(N/N=C/c1ccc([N+](=O)[O-])o1)c1cc(-c2cccc(Br)c2)nc2ccccc12
AC50 [1]: 0.126 µM [falling, partial curve, poor fit]

Cc1csc(SC(C)C(=O)NC2CCCCC2C)n1 (centres undefined)
AC50 [1]: 0.517 µM [rising, full curve, poor fit]

Cc1c(C(=O)Nc2c(F)cccc2F)sc2ncnc(N3CCN(c4ccccc4)CC3)c12
AC50 [1]: 35.5 µM [falling, single point]

CS(=O)(=O)c1ccccc1-c1csc(N2CCC(C(N)=O)CC2)n1
AC50 [1]: 0.58 µM [rising, full curve, poor fit]

O=c1c(C(c2ccc(O)cc2)c2c(O)nc3n(c2=O)CCCS3)c(O)nc2n1CCCS2
AC50 [1]: 17.8 µM [falling, single point]

CN(C)S(=O)(=O)c1cccc(NC(=S)N/N=C/c2ccco2)c1
AC50 [1]: 35.5 µM [falling, single point]

Cc1ccc(Nc2cc(C(=O)NC3CCCC3)c3ccccc3n2)cc1C
AC50 [1]: 35.5 µM [rising, single point]

Cc1noc(NS(=O)(=O)c2ccc(NC(=O)NC(C)(C(F)(F)F)C(F)(F)F)cc2)c1C
AC50 [1]: 4.47 µM [rising, single point]

C=CC[C@H](CC(=O)NCCO)C(=O)NCCOC(=O)[C@@H](CC=C)Cc1ccc(F)cc1
AC50 [1]: 16.4 µM [rising, single point]

Cc1cc(C(F)(F)F)nn1Cc1n[nH]c(=S)n1-c1ccc(Cl)cc1
AC50 [1]: 25.9 µM [rising, single point]

Cc1noc(C)c1COc1ccc(C(=O)NNC(=O)c2ccccc2F)cc1
AC50 [1]: 0.0058 µM [rising, full curve, poor fit]

CCN1c2ccccc2NC2N=C(OC)C(c3ccccc3)C21 (centres undefined)
AC50 [1]: 29.1 µM [falling, single point]

COc1cc(Nc2nc(-c3ccccc3)c3cc(C)ccc3n2)cc(OC)c1OC
AC50 [1]: 0.112 µM [falling, full curve, poor fit]

Cc1cc(/C=C2\SC(=O)N(C)C2=O)c(C)n1-c1ccc(O)cc1
AC50 [1]: 35.5 µM [falling, single point]

CC1(C)O[C@@H]2C[C@H]3[C@@H]4CCC5=CC(=O)C=C[C@]5(C)[C@@]4(F)[C@@H](O)C[C@]3(C)[C@]2(C(=O)CO)O1
AC50 [1]: 0.1 µM [rising, full curve, poor fit]

CC1CC/C(=N/Nc2ccccc2)C(=O)N1 (centres undefined)
AC50 [1]: 16.4 µM [falling, partial curve]

COc1ccc(C2=NOC(C(=O)NCc3ccc(F)cc3)C2)cc1OC (centres undefined)
AC50 [1]: 20.6 µM [rising, single point] | AC50 [2]: 16.4 µM [falling, single point]

Cc1ccc(OCC(=O)N(Cc2cccc(F)c2)C2CCS(=O)(=O)C2)cc1 (centres undefined)
AC50 [1]: 8.91 µM [falling, partial curve, poor fit]

CC(C)CCn1cnc2c(oc3nc4c(cc32)CCCC4)c1=O
AC50 [1]: 10 µM [rising, partial curve, poor fit]

O=C(Cn1nnc(-c2ccccc2Cl)n1)Nc1cccc(S(=O)(=O)N2CCCC2)c1
AC50 [1]: 9.2 µM [falling, partial curve, poor fit]

O=C(O)COc1ccc2oc3ccccc3c2c1
AC50 [2]: 1.41 µM [rising, partial curve, poor fit]

COc1ccccc1C(=O)NNC(=S)Nc1ccccc1
AC50 [1]: 7.94 µM [falling, partial curve]

COc1ccc(OC)c(-n2c(-c3ccc(O)cc3O)n[nH]c2=S)c1
AC50 [1]: 35.5 µM [falling, single point]

Fc1ccc(/C=N/Nc2ccccn2)cc1
AC50 [1]: 0.231 µM [rising, full curve, poor fit]

Cc1ccc(C)c(-n2sc3ccc(F)cc3c2=O)c1
AC50 [2]: 20.6 µM [falling, partial curve, poor fit]

N=c1n(Cc2ccccc2)c2ccccc2n1CC(O)c1ccccc1 (centres undefined)
AC50 [1]: 12.6 µM [falling, partial curve, poor fit]

Cn1c(SCCOc2ccccc2Cl)nnc1-c1ccncc1
AC50 [1]: 29.1 µM [rising, partial curve, poor fit]

S=c1nc[nH]c2c1ncn2C1CCCC1
AC50 [1]: 12.6 µM [rising, single point]

O=C(O)CCCc1ccccc1
AC50 [1]: 16.4 µM [rising, single point]

CCCCn1c(N)c(N(CC)C(=O)c2ccc(N(C)S(=O)(=O)c3ccc(C)cc3)cc2)c(=O)[nH]c1=O
AC50 [1]: 14.6 µM [rising, partial curve, poor fit]

CC(=O)c1cc(C#N)c(SCC(=O)Nc2nccs2)nc1C
AC50 [1]: 5.01 µM [falling, partial curve, poor fit]

Clc1cccc(-c2cc3nc4c(c(NCc5ccco5)n3n2)CCCC4)c1
AC50 [1]: 12.6 µM [falling, partial curve, poor fit]

Cc1ccc(-c2c(C(=O)N/N=C/c3sccc3C)nnn2-c2nonc2N)cc1
AC50 [1]: 35.5 µM [falling, single point]

O=C(CSc1ccc(-c2ccncc2)nn1)N1CCCC1
AC50 [1]: 0.794 µM [falling, full curve, poor fit]

CCOC(=O)c1nc(-c2ccccc2)sc1C(C)=O
AC50 [1]: 2 µM [rising, full curve, poor fit]

COc1ccc(Nc2nc(-c3cc4cccc(OC)c4oc3=O)cs2)cc1
AC50 [1]: 5.8 µM [falling, partial curve, poor fit]

Cc1c(NC(=O)CCCOc2ccccc2)cccc1[N+](=O)[O-]
AC50 [1]: 6.31 µM [falling, partial curve, poor fit]

O=C(Nc1cccc(C(F)(F)F)c1)NC1CCCCC1
AC50 [1]: 3.66 µM [falling, single point]

O=C(Cc1cccs1)N1CCN(S(=O)(=O)c2ccc(F)c(F)c2)CC1
AC50 [1]: 29.1 µM [rising, single point]

O=C(c1ccoc1)N1CCC2(CC1)Oc1ccc(Cl)cc1C(=O)C21CC(c2ccccc2)=NO1 (centres undefined)
AC50 [1]: 11.2 µM [falling, partial curve, poor fit]

C=CCn1cnc2scc(-c3ccc(C)c(C)c3)c2c1=O
AC50 [1]: 2.24 µM [falling, partial curve, poor fit]

Cc1ccc(-n2c(SC3CCOC3=O)nc3ccccc3c2=O)cc1 (centres undefined)
AC50 [1]: 28.2 µM [rising, single point]
